Measured values from patent US20210071191A1.
These are yes or no findings as the source states them, for the method shown. For some assays here: In cells and extracts the contact can be indirect. Some results given as binding are weak or reduced against the parent protein; the word gives no strength. Where a sequence is shown, tags or fusion partners need not be part of it. Each block holds one binder with its values, some of them ahead of it.

How the values were obtained:
[1] = molecular target: T1, nYFP-OsGRF4 (rice) (UniProt Q6ZIK5); experiment: BiFC in tobacco leaf epidermal cells
T1 sequence: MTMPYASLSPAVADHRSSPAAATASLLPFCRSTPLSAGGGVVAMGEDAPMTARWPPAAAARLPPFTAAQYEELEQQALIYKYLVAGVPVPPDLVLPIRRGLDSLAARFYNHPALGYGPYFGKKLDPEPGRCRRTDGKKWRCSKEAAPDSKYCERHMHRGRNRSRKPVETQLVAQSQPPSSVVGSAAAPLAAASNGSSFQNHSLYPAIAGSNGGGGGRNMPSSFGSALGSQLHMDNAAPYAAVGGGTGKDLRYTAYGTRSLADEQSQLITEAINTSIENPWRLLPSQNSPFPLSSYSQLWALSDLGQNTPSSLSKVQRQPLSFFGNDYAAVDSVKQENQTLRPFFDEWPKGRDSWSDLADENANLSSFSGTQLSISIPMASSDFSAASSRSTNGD

[2] = molecular target: T2, HA-tagged OsGRF4 (rice) (UniProt Q6ZIK5); experiment: Co-IP from A. thaliana protoplasts, anti-DDDDK-tag beads, anti-Flag and anti-HA immunoblot
T2 sequence: T1 sequence

binding [1]: binds
B1: cYFP-SLR1 (protein, rice, UniProt Q7G7J6 1-625, looked up, not shown: large carriers)
chain: MKREYQEAGGSSGGGSSADMGSCKDKVMAGAAGEEEDVDELLAALGYKVRSSDMADVAQKLEQLEMAMGMGGVSAPGAADDGFVSHLATDTVHYNPSDLSSWVESMLSELNAPLPPIPPAPPAARHASTSSTVTGGGGSGFFELPAAADSSSSTYALRPISLPVVATADPSAADSARDTKRMRTGGGSTSSSSSSSSSLGGGASRGSVVEAAPPATQGAAAANAPAVPVVVVDTQEAGIRLVHALLACAEAVQQENFAAAEALVKQIPTLAASQGGAMRKVAAYFGEALARRVYRFRPADSTLLDAAFADLLHAHFYESCPYLKFAHFTANQAILEAFAGCHRVHVVDFGIKQGMQWPALLQALALRPGGPPSFRLTGVGPPQPDETDALQQVGWKLAQFAHTIRVDFQYRGLVAATLADLEPFMLQPEGEADANEEPEVIAVNSVFELHRLLAQPGALEKVLGTVHAVRPRIVTVVEQEANHNSGSFLDRFTESLHYYSTMFDSLEGGSSGQAELSPPAAGGGGGTDQVMSEVYLGRQICNVVACEGAERTERHETLGQWRNRLGRAGFEPVHLGSNAYKQASTLLALFAGGDGYRVEEKEGCLTLGWHTRPLIATSAWRVAAA

binding [2]: binds
B2: Flag-tagged SLR1 (protein, rice, UniProt Q7G7J6 1-625, looked up, not shown: small tags and cut ends)
chain: B1 chain
